In the supplement of paper PMC3334620:
The full ranking holds about 33,000 sequences; the median of “E-score (-0.5 to 0.5)” is about -0.0014, and the highest 2% start at about 0.25. This is one part of the list.

What follows are sequences tested against T1, Cad1 (UniProt P24813) (assay: PBM E-score (8-mer binding enrichment) (E-score (-0.5 to 0.5)); higher = stronger / more preferred TF binding). Settings: protein concentration: 100 nM; construct: GST-full length.
T1 sequence: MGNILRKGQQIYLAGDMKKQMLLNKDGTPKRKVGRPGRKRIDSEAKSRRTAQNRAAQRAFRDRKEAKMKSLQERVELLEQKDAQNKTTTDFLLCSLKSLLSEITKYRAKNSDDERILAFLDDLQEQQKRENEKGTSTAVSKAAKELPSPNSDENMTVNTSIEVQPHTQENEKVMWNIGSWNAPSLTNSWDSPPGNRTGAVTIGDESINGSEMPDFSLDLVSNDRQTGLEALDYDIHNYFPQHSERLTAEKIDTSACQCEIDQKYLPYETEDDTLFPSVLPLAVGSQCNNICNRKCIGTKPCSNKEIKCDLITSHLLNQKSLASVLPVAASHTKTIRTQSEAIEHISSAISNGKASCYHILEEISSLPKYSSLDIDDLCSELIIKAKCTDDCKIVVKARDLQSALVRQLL
Method: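 Universal 'all 10-mer' protein binding microarrays (Agilent AMADID 015681) probed with GST-tagged S. cerevisiae TFs (full-length or DBD) made by in vitro transcription/translation (PURExpress), about 100-200 nM. Bound TF was detected with fluorescent anti-GST. Each ungapped 8-mer (which stands for itself and its reverse complement) is scored by the PBM enrichment score (E-score), a modified Wilcoxon-Mann-Whitney statistic from -0.5 to +0.5, computed with the Universal PBM Analysis Suite. Scale: above 0.35 generally sequence-specific binding.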

Sequence | PBM E-score
ACTGACGA | -0.00793
AGATACTC | -0.0492
GCTGCCAC | 0.0283
AAGGACAT | 0.0161
GAAAAATA | 0.115
AGTCTCCG | 0.18
GCAGTGTA | 0.0475
GAGTACTC | 0.0795
ACAGGCCG | 0.106
AACACTCA | 0.0112
AGGAGCCA | -0.237
TGGTGGAA | -0.0705
GATCGGCC | -0.00782
GTATGCAC | 0.0448
CACTTTTC | 0.0171
CCGCCGCG | -0.0716
ATCCTTTG | 0.0844
ACCTTTTA | -0.254
ATGCCCGG | -0.0917
AAAATCCT | -0.0176
CCTGGATA | -0.172
CGTCAACG | -0.0333
ACCAGCTC | 0.0456
GATTGTGC | -0.0437
TCGGTAAA | 0.0454

Sequence | PBM E-score
CCTGCCGC | -0.0972
ACATCGCG | 0.1
TAAGTTAA | 0.17
CACTGCAG | 0.0201
CCTAGACG | -0.00053
CTAATTTA | 0.199
ATGGCGTG | 0.172
AGATTCGC | 0.04
ATACCACG | 0.0689
CACTTTAA | 0.214
CGTGTACA | 0.134
GTAAAAGA | 0.0487
CGAAGCAG | -0.126
AACCAGTG | -0.0556
TTCCTCAA | -0.0277
ACAGCTGG | 0.0155
ACCAAAGT | -0.0716
GAACCTTC | 0.0886
GAAAGCGC | 0.0651
AGAAATGG | -0.0803
ATGATGTC | 0.0748
ACTGAAAT | 0.0771
CCCTCAGG | -0.16
AGTTACTG | -0.0194
CACAAGGC | -0.0672

Sequence | PBM E-score
CAGGAGTC | -0.0614
CCTGGCTA | -0.154
TGAGCTCA | 0.0486
CATCAACA | 0.215
CACATGTG | 0.105
AGACTGGA | -0.204
AATGTCCG | 0.152
GCGTGACC | -0.025
GAATATTC | 0.338
GACCTGCC | -0.117
CGGTAAAA | 0.221
CACTAACG | -0.101
CCTTCCTC | -0.283
CAATCTAG | 0.0757
CAACCGGA | 0.0544
AAGCCCAA | -0.0469
CACAGAGA | 0.0726
AACGTGGC | 0.0123
AGTATTAC | 0.182
ACTCGGGA | 0.0987
CGATCCGC | 0.163
AAATCGCC | -0.00222
CAATCAAG | 0.0519
CACAGTTA | 0.0697
ATGTAGAA | -0.0904

Sequence | PBM E-score
CGAAAAGA | 0.28
GTTGTAGA | 0.015
CGTTGCTC | -0.0706
ATCCCGCG | 0.171
TGCAAACA | -0.159
CGAATCGA | 0.325
ACTAGGCG | 0.0697
CGTACACA | 0.0609
TGCGATAA | 0.218
ATGTCACC | 0.0545
ACGATACC | 0.116
CGTGTCTC | -0.16
AAGCAGAT | 0.183
ATGCGTGC | 0.072
GAAAGCCA | -0.18
CTGTCACA | 0.0656
AAAAATTA | 0.254
AAGGATCA | -0.0795
ATGAAGAC | 0.119
AACTTTAA | 0.202
TAGCTGGA | -0.241
GAATGTCC | 0.0725
GGGAGCTA | -0.318
CGTACGCC | -0.12
ATAAGGCA | -0.0642

Laid out differently: entries from further up
Sequence	PBM E-score
ATGCGTGC	0.072
AAGGATCA	-0.0795
ATGAAGAC	0.119
GAATGTCC	0.0725

The results go on.

Sequence | PBM E-score
GAGCGTGA | -0.0968
CTCGTGGA | -0.0526
ATGAGTTG | -0.0145
AAGGGTCA | -0.138
ATCTTCTA | 0.0108
GCATTCCC | -0.154
TACCTCAA | -0.125
ACGGAAGC | 0.171
CACCCTGC | -0.161
TTGTGAAA | 0.0278
ACATGATC | 0.178
AAGGTTTA | -0.216
CGCCAGCG | 0.0804
AAAGCAGA | 0.0951
GACCAACC | 0.0482
CAAGAGGA | -0.154
ACATACCC | -0.0375
GCAAAGGA | 0.0254
ATCAACTA | 0.226
ATATTCCC | 0.00285
GAATTGCC | -0.0427
CGATTTAA | 0.083
CATTAAAC | 0.0901
CTGTAACC | 0.0599
CAGGGATG | 0.0863

Sequence | PBM E-score
AGTGGACC | -0.137
AATGGGGC | -0.264
ATGTCCGA | 0.0361
AAAATATT | 0.192
GCTCTCCC | -0.223
GGGAGGGA | -0.0952
ATTATGCA | 0.031
AAAGCATG | 0.0176
CCGGGAAA | 0.0234
GAGTAACA | -0.00744
CATAAATC | 0.144
GATTTGGA | -0.013
CAGGATGG | -0.145
TAGCGATA | 0.182
AGGCGAAA | -0.146
CGGAGAGA | -0.094
AACCATGA | 0.0729
CAGGTTAC | -0.0155
AATGCATT | 0.229
ATCCAACG | -0.0785
ACACACTA | 0.187
GACGGGAC | -0.233
GAATCCAA | -0.0184
AAGGAAAC | -0.0901
ACCCAGTG | -0.259

Retrieved one by one from above, 6 records:
Sequence | PBM E-score
CAAGAGGA | -0.154
TGCGATAA | 0.218
AGGCGAAA | -0.146
AGATTCGC | 0.04
CAGGATGG | -0.145
CACTAACG | -0.101

(list continues)

Sequence | PBM E-score
CGCGCTCA | 0.198
ATACGACC | -0.131
AAGCGAAC | 0.043
CGCCAGGA | -0.0577
ACGAGCAG | 0.0971
AGCGACGG | 0.106
AAATCATA | 0.148
CTGGGCTA | -0.0636
CTATTTCA | 0.191
CACCGGAC | -0.135
ACCGTCGT | 0.196
CATCTTCC | -0.0764
ACATTGGC | -0.0363
GTCGGTTA | 0.00175
CGGGCGAA | -0.0692
GGGCGAAC | 0.112
CTAGGTAC | 0.134
GGATGCCC | -0.205
ACCGAGCT | 0.0164
CATATACA | 0.177
ATATTCCA | 0.138
ATGGTCAA | 0.139
